# Some of the results follow.
# What was measured:
# Experiment in all cases: glycan array binding signal (z-score within array); higher = stronger binding
# Conditions in all cases: glycan notation: IUPAC condensed, linker removed
# [1] = target: GalNAc(b1-4)GlcNAc(b1-2)Man
# Method in brief: (§1)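 Negative Z-scores can be read as non-binding. The Z-score is calculated within each array and then averaged across arrays of one protein sequence at different concentrations or buffers and across linkers. Arrays, 3228 in all, were curated from the Consortium for Functional Glycomics database and kept only where the protein sequence was available.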
# [2] = target: GalNAc(b1-4)GlcNAc(b1-2)Man(a1-3)[GalNAc(b1-4)GlcNAc(b1-2)Man(a1-6)]Man(b1-4)GlcNAc(b1-4)GlcNAc
# Method in brief: as §1
# [3] = target: GalNAc(b1-4)GlcNAc(b1-3)GalNAc(b1-4)GlcNAc
# Method in brief: as §1
# GalNAc(b1-4)GlcNAc6S = target: GalNAc(b1-4)GlcNAc6S
# Method in brief: as §1
# GalNAc(b1-6)GalNAc = target: GalNAc(b1-6)GalNAc
# Method in brief: as §1
# GalNAc3S(b1-4)GlcNAc = target: GalNAc3S(b1-4)GlcNAc
# Method in brief: as §1
# GalNAc3S(b1-4)GlcNAc3S = target: GalNAc3S(b1-4)GlcNAc3S
# Method in brief: as §1
# [4] = target: GalNAc3S(b1-4)[Fuc(a1-3)]GlcNAc
# Method in brief: as §1
# GalNAc4S6S(b1-4)GlcNAc = target: GalNAc4S6S(b1-4)GlcNAc
# Method in brief: as §1
# GalNAc6S(b1-4)GlcNAc = target: GalNAc6S(b1-4)GlcNAc
# Method in brief: as §1
# Glc(a1-4)Glc = target: Glc(a1-4)Glc
# Method in brief: as §1
# [5] = target: Glc(a1-4)Glc(a1-4)Glc(a1-4)Glc
# Method in brief: as §1
# Glc(a1-6)Glc(a1-6)Glc = target: Glc(a1-6)Glc(a1-6)Glc
# Method in brief: as §1
# [6] = target: Glc(a1-6)Glc(a1-6)Glc(a1-6)Glc
# Method in brief: as §1
# Glc(b1-4)Glc = target: Glc(b1-4)Glc
# Method in brief: as §1
# Glc(b1-6)Glc = target: Glc(b1-6)Glc
# Method in brief: as §1
# GlcA(b1-3)Gal = target: GlcA(b1-3)Gal
# Method in brief: as §1
# GlcA(b1-3)GlcNAc = target: GlcA(b1-3)GlcNAc
# Method in brief: as §1
# GlcA(b1-6)Gal = target: GlcA(b1-6)Gal
# Method in brief: as §1
# [7] = target: GlcA3S(b1-3)Gal(b1-4)GlcNAc(b1-2)Man
# Method in brief: as §1
# [8] = target: GlcA3S(b1-3)Gal(b1-4)GlcNAc(b1-3)Gal(b1-4)Glc
# Method in brief: as §1
# [9] = target: GlcNAc(a1-3)Gal(b1-4)GlcNAc
# Method in brief: as §1
# [10] = target: GlcNAc(a1-4)Gal(b1-3)GlcNAc
# Method in brief: as §1
# [11] = target: GlcNAc(a1-4)Gal(b1-4)GalNAc
# Method in brief: as §1
# [12] = target: GlcNAc(a1-4)Gal(b1-4)GlcNAc
# Method in brief: as §1
# [13] = target: GlcNAc(a1-4)Gal(b1-4)GlcNAc(b1-3)Gal(b1-4)Glc
# Method in brief: as §1
# [14] = target: GlcNAc(a1-4)Gal(b1-4)GlcNAc(b1-3)Gal(b1-4)GlcNAc
# Method in brief: as §1
# [15] = target: GlcNAc(a1-4)Gal(b1-4)GlcNAc(b1-3)Gal(b1-4)GlcNAc(b1-3)Gal(b1-4)GlcNAc
# Method in brief: as §1
# [16] = target: GlcNAc(a1-4)Gal(b1-4)GlcNAc(b1-3)Gal(b1-4)[Fuc(a1-3)]GlcNAc(b1-3)Gal(b1-4)[Fuc(a1-3)]GlcNAc
# Method in brief: as §1
# [17] = target: GlcNAc(a1-6)Gal(b1-4)GlcNAc
# Method in brief: as §1
# [18] = target: GlcNAc(b1-2)Gal(b1-3)GalNAc
# Method in brief: as §1
# [19] = target: GlcNAc(b1-2)Man(a1-3)[GlcNAc(b1-2)Man(a1-6)]Man(b1-4)GlcNAc(b1-4)GlcNAc
# Method in brief: as §1
# [20] = target: GlcNAc(b1-2)Man(a1-3)[GlcNAc(b1-2)Man(a1-6)]Man(b1-4)GlcNAc(b1-4)[Fuc(a1-6)]GlcNAc
# Method in brief: as §1
# [21] = target: GlcNAc(b1-2)Man(a1-3)[GlcNAc(b1-4)][GlcNAc(b1-2)Man(a1-6)]Man(b1-4)GlcNAc(b1-4)GlcNAc
# Method in brief: as §1
# [22] = target: GlcNAc(b1-2)Man(a1-3)[GlcNAc(b1-4)][GlcNAc(b1-2)Man(a1-6)]Man(b1-4)GlcNAc(b1-4)[Fuc(a1-6)]GlcNAc
# Method in brief: as §1
# [23] = target: GlcNAc(b1-2)[GlcNAc(b1-4)]Man(a1-3)[GlcNAc(b1-2)Man(a1-6)]Man(b1-4)GlcNAc(b1-4)GlcNAc
# Method in brief: as §1
# [24] = target: GlcNAc(b1-2)[GlcNAc(b1-4)]Man(a1-3)[GlcNAc(b1-4)][GlcNAc(b1-2)Man(a1-6)]Man(b1-4)GlcNAc(b1-4)GlcNAc
# Method in brief: as §1
binder,measurement,setting,value
PX14375A-pdi-503-28-503 (Parabacteroides distasonis) (protein) PLGSPEAGDISEERQAFLRLTAVYSVMKDFRYTWSMQCFGDVLSNDATYSGSSNDAQTFTLLENYQYQADHTEILNKYRYSYQCINKANLFIRDMEMADDALFSKYDKEQMIGEAKFIRAYTYFELVKTFGGVPCYTGVLDLDHERLGRASVEEIYSVIEQDLNDAVSVLPKKSEVANYESSYAGRITKGAAIAMQTRIYLYEKKYDEVKKAFEKFQNECGGEYSLVAPEDYTWQFSLDGEHCSSSILEVNMYNSSTQSSYNVNNGNRHVLMSMPRNMTIGFGCAQPTQALADAYDAEGDVIRKKTTLLSTEEAIEIETAAKGDVAPVTDDRTGWYNRKLYLAPGQREENRGNNQPTNLRLIRLAEVYLNYAEACYFSGDIANAQKYLNEVRSHVNLAPKNHTGSQLFEDIMNERHLEFGMEGFRFFDVVRVGWGEKVFNGTKKAEFGAKTPFSAGAEVLPIPQTEIDISDGLITN,glycan array binding signal (z-score),[1],-0.047
same,glycan array binding signal (z-score),[2],0.156
same,glycan array binding signal (z-score),[3],-0.282
same,glycan array binding signal (z-score),GalNAc(b1-4)GlcNAc6S,0.201
same,glycan array binding signal (z-score),GalNAc(b1-6)GalNAc,0.361
same,glycan array binding signal (z-score),GalNAc3S(b1-4)GlcNAc,-1
same,glycan array binding signal (z-score),GalNAc3S(b1-4)GlcNAc3S,-0.318
same,glycan array binding signal (z-score),[4],0.029
same,glycan array binding signal (z-score),GalNAc4S6S(b1-4)GlcNAc,0.215
same,glycan array binding signal (z-score),GalNAc6S(b1-4)GlcNAc,-0.507
same,glycan array binding signal (z-score),Glc(a1-4)Glc,-0.369
same,glycan array binding signal (z-score),[5],-0.695
same,glycan array binding signal (z-score),Glc(a1-6)Glc(a1-6)Glc,-0.184
same,glycan array binding signal (z-score),[6],-0.04
same,glycan array binding signal (z-score),Glc(b1-4)Glc,-0.675
same,glycan array binding signal (z-score),Glc(b1-6)Glc,-0.442
same,glycan array binding signal (z-score),GlcA(b1-3)Gal,-0.131
same,glycan array binding signal (z-score),GlcA(b1-3)GlcNAc,0.966
same,glycan array binding signal (z-score),GlcA(b1-6)Gal,0.643
same,glycan array binding signal (z-score),[7],0.254
same,glycan array binding signal (z-score),[8],-0.48
same,glycan array binding signal (z-score),[9],0.178
same,glycan array binding signal (z-score),[10],-0.024
same,glycan array binding signal (z-score),[11],0.594
same,glycan array binding signal (z-score),[12],-0.163
same,glycan array binding signal (z-score),[13],-0.684
same,glycan array binding signal (z-score),[14],-0.526
same,glycan array binding signal (z-score),[15],-0.269
same,glycan array binding signal (z-score),[16],1.27
same,glycan array binding signal (z-score),[17],-0.381
same,glycan array binding signal (z-score),[18],0.376
same,glycan array binding signal (z-score),[19],-0.77
same,glycan array binding signal (z-score),[20],-0.328
same,glycan array binding signal (z-score),[21],0.931
same,glycan array binding signal (z-score),[22],0.491
same,glycan array binding signal (z-score),[23],-0.628
same,glycan array binding signal (z-score),[24],-0.163

# An excerpt of these results, as tab-separated lines.
binder	measurement	setting	value
PX14375A-pdi-503-28-503 (Parabacteroides distasonis) (protein) PLGSPEAGDISEERQAFLRLTAVYSVMKDFRYTWSMQCFGDVLSNDATYSGSSNDAQTFTLLENYQYQADHTEILNKYRYSYQCINKANLFIRDMEMADDALFSKYDKEQMIGEAKFIRAYTYFELVKTFGGVPCYTGVLDLDHERLGRASVEEIYSVIEQDLNDAVSVLPKKSEVANYESSYAGRITKGAAIAMQTRIYLYEKKYDEVKKAFEKFQNECGGEYSLVAPEDYTWQFSLDGEHCSSSILEVNMYNSSTQSSYNVNNGNRHVLMSMPRNMTIGFGCAQPTQALADAYDAEGDVIRKKTTLLSTEEAIEIETAAKGDVAPVTDDRTGWYNRKLYLAPGQREENRGNNQPTNLRLIRLAEVYLNYAEACYFSGDIANAQKYLNEVRSHVNLAPKNHTGSQLFEDIMNERHLEFGMEGFRFFDVVRVGWGEKVFNGTKKAEFGAKTPFSAGAEVLPIPQTEIDISDGLITN	glycan array binding signal (z-score)	[19]	-0.77
same	glycan array binding signal (z-score)	[20]	-0.328

# Reference: the supplement of paper PMC8728848
